# Laboratory results published in publication PMC11329928, “Design, synthesis and structure-activity relationship (SAR) studies of an unusual class of non-cationic fatty amine-tripeptide conjugates as novel synthetic antimicrobial agents” (Frontiers in Pharmacology, 2024).
# Assays:
# [1] = tested on: human erythrocytes (hRBCs); format: cell-based; conditions: selective index
# [2] = tested on: A549, IMR-90 and HeLa cells; conditions: selective index
substance,measurement,setting,value
Ala - Pro -Glu-NH-C18H37 · HCl [DICAM 23],SI Spn HC50/SC,[1]; HC50 over SC for S. pneumoniae D39,2
same,SI Spy HC50/SC,[1]; HC50 over SC for S. pyogenes T,0.6
same,SI Spn IC50av/SC,[2]; mean of the three IC50 values over SC for S. pneumoniae D39,16.7
same,SI Spy IC50av/SC,[2]; mean of the three IC50 values over SC for S. pyogenes T,5
